# Data source: PubChem BioAssay AID504764 (Drosophila RNAi Screening Center, 2011)
# Test: 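Knock-downs that raise or lower a Notch target reporter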 (primary screen)
# Cells: Drosophila Kc167 cells
# Knock-down reagent: long dsRNA against Drosophila genes
# Time to read-out: about 5 days (4 days dsRNA, then 24 h after transfection)
# Treatment: transfection of constitutively active membrane-tethered Notch lacking the extracellular domain, read 24 h later
# Measurement: 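Firefly luciferase from an E(spl)m3 reporter with active Notch, plus control-promoter and uninduced reporter wells for normalisation; unnormalised counts, duplicate wells a and b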
# Direction: induced reporter light, run 1, well a and induced reporter light, run 1, well b: higher = more light from the Notch target reporter with active Notch; control promoter light, run 1, well a and control promoter light, run 1, well b: higher = more light from the viral control promoter (cell number, transfection, viability); uninduced reporter light, run 1, well a: higher = more light from the Notch target reporter without active Notch
# Rule for the call: 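Wells with low control signal or poorly matching duplicates excluded; duplicates averaged; per source plate, z beyond ±2 for induced/control log2 ratio or beyond ±1.8 for induced/uninduced marks a hit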
# Meaning of the calls: active = modifier hit (raised or lowered Notch signal); inactive = not a hit
# In all, the deposit lists about 22,000 reagents; this is an unselected part of those with a known target gene and a result. Of all reagents, 403 (1.9%) are marked active. 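Unnormalised raw counts per well; ratio z-scores behind the hit calls and whether each hit raises or lowers signal are not deposited.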 A plus sign joins genes that one reagent is predicted to hit. Reagent sequences are not shown. Not given: the amount of reagent.
target gene,amplicon,"induced reporter light, run 1, well a","induced reporter light, run 1, well b","control promoter light, run 1, well a","control promoter light, run 1, well b","uninduced reporter light, run 1, well a",Call
CG3610,DRSC15502,2.48e5,2.67e5,2.32e5,2.52e5,18590,inactive
Dsk,DRSC12347,1.42e5,1.24e5,95035,1.21e5,7070,inactive
CG12237,DRSC19449,86865,92735,90820,45650,7805,inactive
CG4404,DRSC19897,1.55e5,1.10e5,2.24e5,2.21e5,11100,inactive
CG17580,DRSC06683,82425,84880,1.07e5,1.04e5,8110,inactive
Jon65Aii,DRSC10665,1.73e5,1.56e5,1.63e5,1.53e5,3835,active
CG5002,DRSC06911,93775,94785,2.29e5,2.25e5,9110,inactive
CG4462,DRSC15583,1.68e5,1.76e5,2.40e5,2.79e5,16340,inactive
CG7702,DRSC16293,84155,1.66e5,2.25e5,2.89e5,13715,active
TwdlG,DRSC12229,61580,44525,36650,32245,3175,inactive
fax,DRSC11345,1.04e5,94910,70025,81720,6875,inactive
CG6126,DRSC15971,2.54e5,2.77e5,3.49e5,3.38e5,16165,inactive
zpg,DRSC09702,2.94e5,2.50e5,2.90e5,2.26e5,11095,inactive
CG7191,DRSC03022,1.46e5,1.47e5,1.17e5,1.36e5,20695,inactive
CG5071,DRSC15710,1.85e5,1.45e5,1.69e5,1.54e5,11825,inactive
FucTA,DRSC10733,79635,54625,77410,50325,7980,inactive
CG11085,DRSC19374,1.67e5,1.48e5,3.20e5,2.80e5,12170,inactive
Jhbp2,DRSC12292,1.33e5,1.06e5,1.18e5,1.08e5,11188,inactive
Pat1,DRSC17750,2.29e5,1.86e5,2.54e5,2.20e5,15450,inactive
PrBP,DRSC03189,88445,92945,37775,44595,7025,inactive
CG31323,DRSC14901,1.60e5,1.77e5,2.25e5,2.11e5,13155,inactive
Coq3,DRSC03168,2.09e5,2.03e5,1.47e5,2.08e5,14878,inactive
CG13869 + CG11099,DRSC06428,32895,34995,41295,36370,4070,inactive
CG8128,DRSC20084,2.17e5,1.87e5,3.01e5,2.69e5,14685,inactive
Ets65A,DRSC09968,1.47e5,1.57e5,1.86e5,1.41e5,10325,inactive
Ets65A,DRSC10738,1.30e5,1.21e5,72610,41540,11875,inactive
Ets65A,DRSC11164,1.19e5,1.53e5,1.08e5,59470,10995,inactive
Ass + CG31286,DRSC12493,1.08e5,1.12e5,1.08e5,83085,7875,inactive
CG5882,DRSC15907,1.38e5,1.18e5,2.05e5,1.90e5,13370,inactive
CG9822,DRSC04568,79110,46695,50530,66685,2720,inactive
CG13250,DRSC11698,1.40e5,1.10e5,1.04e5,93330,10090,inactive
bbc,DRSC06958,1.79e5,1.92e5,1.63e5,1.96e5,18550,inactive
bbc,DRSC22309,,,,,,inactive
CG7272,DRSC10795,1.51e5,1.45e5,2.23e5,2.10e5,6095,inactive
Dsp1,DRSC20315,1430,1000,1060,1240,1150,inactive
APC10,DRSC06071,1.04e5,92545,1.05e5,99970,8025,inactive
CG10175,DRSC13628,2.04e5,1.79e5,1.47e5,1.66e5,14330,inactive
CG10175,DRSC14200,1.77e5,1.66e5,2.15e5,1.94e5,16055,inactive
CG10175,DRSC21981,,,,,,inactive
SF1,DRSC16844,2.39e5,2.27e5,1.92e5,1.85e5,21338,inactive
Swt1,DRSC20028,1.19e5,1.30e5,1.13e5,59360,11110,inactive
qkr58E-1,DRSC04709,1.59e5,2.19e5,1.51e5,1.48e5,15205,inactive
Cpr65Eb,DRSC11026,1.93e5,1.65e5,3.01e5,2.78e5,12292,inactive
Alms1a,DRSC18558,1.46e5,1.28e5,2.56e5,2.49e5,10040,inactive
Rcd6,DRSC06054,1.25e5,1.05e5,1.80e5,1.74e5,8475,inactive
Pif1A + Pif1B,DRSC14142,22265,24285,31050,18192,1915,inactive
Pif1A + Pif1B,DRSC14380,1.29e5,95210,1.06e5,83580,10370,inactive
Pif1A + Pif1B,DRSC14381,1.04e5,1.30e5,1.03e5,1.07e5,8710,inactive
CG5262,DRSC11773,1.14e5,1.52e5,72585,70280,10025,inactive
CG2736,DRSC04314,2.07e5,1.96e5,1.64e5,1.87e5,15532,inactive
Rab3,DRSC07523,96675,1.12e5,95710,93845,8905,inactive
CG5001,DRSC00673,1.07e5,1.32e5,1.14e5,71800,9540,inactive
Pfdn2,DRSC10618,1.03e5,89695,1.20e5,1.26e5,10455,inactive
CG30148,DRSC06391,1.87e5,1.70e5,3.04e5,2.26e5,15132,inactive
mEFTu2,DRSC06163,1.91e5,1.82e5,1.80e5,2.20e5,16015,inactive
CG15048 (retired record),DRSC19624,97830,92665,1.22e5,97200,12540,inactive
Nxf3,DRSC21749,,,,,,inactive
PSMG1,DRSC12297,1.34e5,1.41e5,88580,83530,10825,inactive
Vsp37A,DRSC18794,1.22e5,1.51e5,2.31e5,2.05e5,9550,inactive
CG2930,DRSC17730,44255,42450,44520,47765,2750,inactive
CG12674,DRSC00348,1.30e5,1.08e5,1.07e5,52055,8870,inactive
emp,DRSC04019,1.73e5,2.04e5,2.60e5,2.59e5,11970,inactive
emp,DRSC04683,1.26e5,1.15e5,90025,1.07e5,6170,active
CG10041,DRSC14179,82585,92735,93235,99335,5385,inactive
